The source of these data is patent publication US20240317857A1 (AMPSOURCE BIOPHARMA SHANGHAI, published 2024).

Sequences of proteins named here, by UniProt entry; tags and fusion partners are left off. Residues count along the entry.
UniProt P07766, residues 23-207: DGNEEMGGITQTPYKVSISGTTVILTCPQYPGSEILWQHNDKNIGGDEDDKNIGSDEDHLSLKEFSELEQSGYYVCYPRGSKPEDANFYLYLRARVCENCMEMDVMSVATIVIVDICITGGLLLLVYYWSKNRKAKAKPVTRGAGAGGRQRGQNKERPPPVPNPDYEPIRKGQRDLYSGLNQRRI

The chains are these.
B1: humanized antibody AB614 (antibody, human IgG4 S228P, kappa, V domains shown)
VH: EVQLLESGGGLVQPGGSLKLSCAASGFTFNTYAMNWVRQAPGKGLEWVGRIRSKINNYATYYADSVKDRFTISRDDSKNTAYLQMNNLKTEDTAMYYCVRHDNFYGSTYSWFADWGQGTLVTVSS
VL: ELVVTQEPSLTVSPGGTVTLTCRSSTGVVTTSNYANWVQEKPDHLFTGLIGATNYRAPGTPARFSGSLLGGKAALTLSGVQPEDEAIYFCVLWYSNHWVFGGGTKLTVLR
notes: Humanized from AP591 CDRs
B2: humanized antibody AB611 (antibody, human IgG4 S228P, kappa, V domains shown)
VH: EVQLVQSGAEVKKPGSSVKVSCKASGYTFTNNYIHWVKEKPGQGLEWIGWIYPGDGTTKYNEKFKGKTTLASDKSTNTAYMELSSLRSEDTAIYFCTRNNNYYFDYWGQGTTVTVSS
VL: DIVMTQSPDSLAVSLGERATMNCKSSQSLFNSRTRKNYLAWYQQKPGESPKLLIYWASTRESGVPDRFSGSGSGTDFTLTISSLQAEDVAVYYCKQSFILRTFGGGTKVEIKR
notes: Humanized from AP831 CDRs
B3: murine monoclonal antibody AP191 (antibody, mouse IgG1, V domains shown)
VH: QVQLQQSGPELVKPGASMKMSCKASGYTFTSYYIHWVKQRPGQGLEWIGWIYPGDGSTKFNEKFRGKTSLTADKSSNTAYMFLSSLTSEDSAIYFCARDGYSLYYFEFWGHGTTLTVSS
VL: DIVMSQSPSSLAVSAGETVTMSCKSSQSLLNSRTRKTYLAWYQQKPGQSPKLLIYWASTRDSGVPDRFTGSGSGTDFTLTISSVQAEDLAVYYCVQSYTLRTFGGGTKLEIK
B4: murine monoclonal antibody AP831 (antibody, mouse IgG1, V domains shown)
VH: QVQLQQSGPELVKPGTSVKMSCKASGYTFTNNYIHWVKEKPGEGLEWIGWIYPGDGTTKYNEKFKGKTTLASDKSSNTVYMFLSSLTSEDSAIYFCTRNNNYYFDYWGQGTTLTVSS
VL: B3 VL with T18K, S22N, L30F, T37N, D61E, V91L, V95K, Y98F, T99I
B5: murine monoclonal antibody AP591 (antibody, mouse IgG1, V domains shown)
VH: B1 VH with L5V, G15K, K67R, K78Q, N79S, T80M, A81L, N86S, S125A
VL: AVVTQESALTTSPGETVTLTCRSSTGVVTTSNYANWVQEKPDHLFTGLIGATNYRVPGVPARFSGSLIGDKAALTITGAQTEDEAIYFCVLWYSNHWVFGGGTKLTVL

Changes are numbered by the printed parent chain. No constants are given. Whether binding was seen depends on the method and setting. Some binding calls cover weakened binding; strength is not graded here.

In one test the target is T1, human CD3 on human T cells (human, UniProt P07766 23-207). Kind of test: flow cytometry on human primary T cells, goat anti-human IgG AF647 detection, MFI (AF647).
As to B1, the binding result is “binds”.
Still for that read-out and setting: the entry for B2 is “binds”.

A further test concerns the target T1, human CD3 on human T cells. In words: flow cytometry on human primary T cells.
For the molecule B3, the binding result is “binds”.
With B4, the binding result is “binds”.
Same read-out and setting: the entry for B1 is “binds”; for B5 it is “binds”.
The same measure, in the same setting: the entry for B2 is “binds”.

For another test, the target named is T1, human CD3 on human T cells. Kind of test: flow cytometry on human primary T cells, goat anti-mouse IgG AF647 detection, MFI (AF647).
With B3, the binding result was “binds”.
For B4, the binding entry was “binds”.
Still for that read-out and setting: the entry for B5 is “binds”.
